The values below come from PubChem BioAssay AID1508600 (Functional Genomics Laboratory (NCATS/FGL), 2020).

Out of some 53,000 sequences screened, about 3,700 (7%) were called active.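 How the source made its calls: active means gene knockdowns whose robust z-score for IL-1 alpha signal is at least 2 or at most -2, so actives lie on both sides; inactive means the rest.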 The list shows a part of the results.

The nature of the assay: Components of the Cytosolic LPS Sensing Pathway: Gene Identification via Genome-wide siRNA Screen.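 Further: robust z of the log signal after scaling to non-targeting control siRNA wells of the plate.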 The following applies: RAW264.7 macrophages, IL-1a HTRF, actives lie on both sides, screened at 100 nM (by protocol), cells primed 5 h with Pam3CSK4 first. In short, it runs like this: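 RAW264.7; siRNA 100 nM final, RNAiMAX, 48h 37 degrees C; Pam3CSK4 5 h; LipidA + TransIT-TKO 24 h; IL-1a HTRF; CellTiter-Glo viability; robust z vs negative-control median.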
(Time-resolved FRET reads energy transfer from a long-lived donor to a nearby acceptor.)
Consider GCUCUCAGUGACCUUAGAATT against Dnaja1, for which the z-score is inactive: -0.302. Then GGUUGUGCACAGCAGUGUUTT against Crct1, with inactive: -0.716; and CCGCUAACUUGAUUGACGATT against Tcte1, with inactive: -0.923.

As to GCCCAUUGAAGAAAAACCCTT against Arid4b, the z-score was inactive: -0.698.

Regarding GGGUCAGAAUAUUUGCUUCTT against Olfr325, the z-score was inactive: 0.89. Turning to GCCAGUUAACUUUAGGGAGTT against Ywhaz, the z-score is inactive: 0.274. In the case of GGCUGGAAGACAAAACUCCTT against Prickle3 it was inactive: -0.782; in that of CGAUGCUGAUGUAUCAAAGTT against Phkb, inactive: 1.48; in that of CGAAUAUCAAAGGAUACUUTT against Tmem167, inactive: 0.627. In the case of GCUCAUUUAUUCAGGAAGCTT against Zbtb9 it was inactive: 0.406; in that of GGAAGAGCUGCUGAAUUCATT against Mthfd2, inactive: 0.052; in that of GGUGAACUCAGACUGAAUGTT against Mtres1, inactive: -0.183. Then GGAAAAUAAGCAUAGUGAUTT against Spesp1, with inactive: -0.35; and GCUUCUCAAGAGUGAAAUATT against Gcc2, with inactive: -1.56. Take GGGAAGUCACUGAAGCCUGTT against Akr7a5: the z-score is inactive: 0.591. Then GGUACGAGAACAACUGACUTT against Acot3, with inactive: 0.269.

Regarding GCUUGUUCACGGACAAGAATT against Yars2, the z-score was inactive: 0.0729.

For the sequence GGAAAUGAAUCUGAUCCUGTT against Ces2a, the z-score was inactive: 1.76.

On to CCUCGAUUAUAGCAAUACUTT against Slc16a14, for which the z-score is inactive: 1.36.

Regarding “GGAGGACUCAGCACUCUUUTT against E130311K13Rik”, the z-score is inactive: -0.769. With GGGAAACUUGAACUUUGAUTT against Rsph1, the z-score is inactive: -1.54. Consider GCUCCUACGUGUCAGCCUUTT against Skor1, for which the z-score was inactive: -0.815. Then CGAUGUGAGUUGCAGAUAUTT against Sp3os, with inactive: 1.62. Then GCUCAGCUGAAAAACUUGCTT against Ankrd53, with inactive: 0.819; and GGAAUUUCUGUGGUGGAGATT against Ddit4, with inactive: 0.186. In the case of GGCCAAGUUCCUUUGCAUATT against Lacc1, the z-score was inactive: 0.274.

As to GGUGUAUGGUGGUGGUAGUTT against Pgap3, the z-score is inactive: 0.0533.

Regarding CCCGGAGAAGUUUUUAUCATT against Sfpq, the z-score was inactive: 0.223. In the case of GGGCAAUUUGGACUGUUUUTT against Jam3 it was inactive: -0.973. In the case of GGAAUCUGAUCUUAACAUCTT against Tenm1 it was inactive: -1.49; in that of CGUUGAUCUACGUUAUAAATT against Car6, inactive: 0.5; in that of GGAGAUCUGCCAGUGGAAATT against Pigx, inactive: -0.0187. Then GGAAGUCAACCGAGUCUUCTT against Sp140, with inactive: 0.011; and GCACAAGCGUGGAACACAUTT against Dctn2, with inactive: 0.702. On to GCAUUCUAUACUAUCGUCATT against Olfr314, for which the z-score is inactive: 0.78. Regarding GGAUACAUAUAGGUAGAAUTT against Adgrg6, the z-score was inactive: -0.662. As for GGCACCAUUCUGAAUCAGATT against Ddx50, the z-score is inactive: 0.78. In the case of GGUGCAAUGCAAACUCUACTT against Cldn19 it was inactive: 1.35; in that of GCAAGUACCAUGGACCAUGTT against Mbp, inactive: 0.607.

For GGAUCAUGUUUGUUGACCCTT against Agr3, the z-score was inactive: 0.446.

On to GGUAAAAGUGGAACAAGAGTT against Irak3, for which the z-score was inactive: 0.0834. With GGUUUCCUUUAUCAAGAAGTT against Snrnp25, the z-score was inactive: -0.00388.

On to GCCAAGUGACGAUCAACUATT against Rpusd1, for which the z-score is inactive: 0.804. With CCUGACAGUACCAAAAAAUTT against Pax4, the z-score is inactive: -0.599.

In the case of GCAGUUAGUGUUUUUUGACTT against Nlrc4, the z-score is inactive: -0.00527.

Consider CCUUGGUUGUAUCCAUUUUTT against Cnot10, for which the z-score was inactive: 1. Then GCACCUUUGAAUGUGAAGUTT against Ccl2, with inactive: -0.408; and GGCUUCACUCUGAAGAAUUTT against Nab2, with inactive: 1.1; and CCCUCUAAGAAUUAAAAAGTT against Atmin, with inactive: 0.707.

With CCGGUUCAGAUUUGGCUAATT against Icam4, the z-score was inactive: 0.48.

For the sequence GCAAGUAAAUAUGAGAACATT against Plxna4, the z-score was inactive: -1.17. With GCUGUCUCGUCAUUUAAGATT against Dym, the z-score is inactive: -0.461. Then GCCGUCUCUGUGUCACAAATT against Sirt1, with active: -2.19. In the case of GUCAUCAUGAACCAAGAGATT against Olfr713 it was active: -2.18; in that of GGAGUGUUUUACCUCUUUCTT against Nudt13, inactive: 0.911; in that of GGCCAAACACGUAUCUUUGTT against Snta1, inactive: -0.122. GGAGACGAAGUGCUUAGGCTT against Gmip: the z-score was inactive: 1.83. Then GUAUGUUGACAUUUGCCUGTT against Olfr113, with active: -2.05; and GCGCAAGGAUAACUUUCAATT against Inpp5j, with inactive: 0.61. In the case of GCAGGGAGUGGUUUUAUGATT against Hoxb9 it was inactive: 1.34; in that of CCGCGCCGUUGAUUCAUUUTT against Spata17, inactive: 1.08.

For the sequence GGCUCGACUUGGAGAAAAGTT against Atg13, the z-score was inactive: 0.0439.

For the sequence GCCCGGAGAAUAUUAACUATT against Mllt11, the z-score is active: 2.21.

Consider GGAUCUUCGUCAACAAGCATT against Zmynd10, for which the z-score was inactive: 0.472. Regarding GCUCAUUUUAGGCAAAAGATT against Klhdc8a, the z-score is inactive: 0.401. In the case of GGUUUCCAUGGUAACGUGGTT against Tns1 it was active: 2.24; in that of GCACAACAUAAGAAGGUGGTT against Klk14, inactive: -1.34; in that of GGACACAACUCAUUUUCAGTT against Prg3, inactive: -1.61. Then GCUCACCAUCAAAUCAGUGTT against Ceacam14, with inactive: 1.15.
